# ChEMBL document CHEMBL1129977, “Antitumor agents. 172. Synthesis and biological evaluation of novel deacetamidothiocolchicin-7-ols and ester analogs as antitubulin agents” (J Med Chem, 1997)
# Amino acid sequences for entries named in this document (tags omitted).
# UniProt P02550, whole entry, looked up: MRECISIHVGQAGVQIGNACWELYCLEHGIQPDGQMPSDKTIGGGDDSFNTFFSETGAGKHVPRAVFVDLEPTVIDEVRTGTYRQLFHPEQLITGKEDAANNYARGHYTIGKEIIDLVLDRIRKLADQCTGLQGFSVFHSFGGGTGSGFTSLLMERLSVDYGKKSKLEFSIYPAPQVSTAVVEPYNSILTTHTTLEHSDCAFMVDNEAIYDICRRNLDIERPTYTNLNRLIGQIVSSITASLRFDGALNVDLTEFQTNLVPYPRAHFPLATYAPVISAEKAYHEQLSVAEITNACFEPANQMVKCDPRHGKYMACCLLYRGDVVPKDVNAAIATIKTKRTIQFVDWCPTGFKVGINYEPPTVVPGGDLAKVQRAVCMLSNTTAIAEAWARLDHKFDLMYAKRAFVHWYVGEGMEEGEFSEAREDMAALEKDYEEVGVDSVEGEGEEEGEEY
# Key:
# [1] = target: Tubulin alpha chain (Sus scrofa) (UniProt P02550); settings: at 5 µM
# CA46 = experiment: Inhibits the growth of the human Burkitt lymphoma CA46 cell; format: functional, cell-based
Compound,inhibition [1] [%],IC50 (CA46) [µM]
COc1cc2c(c(OC)c1OC)-c1ccc(SC)c(=O)cc1[C@@H](NC(C)=O)CC2,45,–
COc1cc2c(c(OC)c1OC)-c1ccc(SC)c(=O)cc1[C@@H](N)CC2,49,38
